Cleaved PARP after 72 h of treatment

Values as published with doi:10.1371/journal.pone.0140310, rounded.

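The test systems are human melanoma cell lines, treated with a pair of drugs for 72 h and then stained and imaged. Each value is the cleaved-PARP-positive fraction of nuclei relative to DMSO-treated wells, in %, so that 100 equals the control and higher values mean more apoptosis. Every drug was used at one fixed concentration, the higher of two screened. The file gives one value for each pair and line, without errors, so small differences may be noise. The marker varies much from line to line, for technical or biological reasons.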
Only some of the drugs and lines screened are listed, without regard to their results.
A dash means that no value is listed here.

Drug key:
etoposide: COc1cc([C@@H]2c3cc4c(cc3[C@@H](O[C@@H]3O[C@@H]5CO[C@@H](C)O[C@H]5[C@H](O)[C@H]3O)[C@H]3COC(=O)[C@H]23)OCO4)cc(OC)c1O at 0.1 µM
ruxolitinib: N#CC[C@H](C1CCCC1)n1cc(-c2ncnc3[nH]ccc23)cn1 at 5 µM
BI-78D3: O=c1[nH]nc(Sc2ncc([N+](=O)[O-])s2)n1-c1ccc2c(c1)OCCO2 at 1 µM
GW9662: O=C(Nc1ccccc1)c1cc([N+](=O)[O-])ccc1Cl at 10 µM
fludarabine: Nc1nc(F)nc2c1ncn2[C@@H]1O[C@H](CO)[C@@H](O)[C@@H]1O at 1 µM
PF-562271: CN(c1ncccc1CNc1nc(Nc2ccc3c(c2)CC(=O)N3)ncc1C(F)(F)F)S(C)(=O)=O at 0.4 µM
tanespimycin: C=CCNC1=C2C[C@@H](C)C[C@H](OC)[C@H](O)[C@@H](C)/C=C(\C)[C@H](OC(N)=O)[C@@H](OC)/C=C\C=C(/C)C(=O)NC(=CC1=O)C2=O at 0.01 µM
GW441756: Cn1cc(/C=C2\C(=O)Nc3cccnc32)c2ccccc21 at 2 µM

Pair | MZ2-MEL | LOX IMVI | G-361 | WM3526 | COLO 800 | C32 | WM451Lu | MeWo | WM1716
GW441756 + fludarabine | 20.8 | 74.4 | 140 | 1570 | 85.0 | 188 | 23.3 | 75.0 | 37.6
PF-562271 + GW9662 | 238 | 84.5 | 34.4 | 81.8 | 177 | 127 | 175 | 200 | 23.4
ruxolitinib + GW441756 | 32.6 | 100 | 142 | 144 | 70.7 | 98.0 | 89.1 | 270 | 268
BI-78D3 + PF-562271 | 174 | 83.5 | 80.7 | 98.4 | 114 | 368 | 110 | 85.8 | 156
etoposide + tanespimycin | 120 | 144 | 249 | 154 | 163 | 221 | 112 | 319 | 127
fludarabine + PF-562271 | 153 | 232 | 151 | 2040 | 151 | 488 | 153 | 144 | 688
GW9662 + etoposide | 159 | 77.3 | 195 | 106 | 218 | 101 | 345 | 293 | 133
tanespimycin + GW441756 | 44.7 | 142 | 111 | 141 | 245 | 638 | 115 | 61.1 | 110
tanespimycin + ruxolitinib | 273 | 108 | 462 | 378 | 40.8 | 264 | 275 | 237 | 65.0
etoposide + PF-562271 | 272 | 155 | 137 | 90.8 | 226 | 396 | 87.8 | 82.0 | 226
ruxolitinib + GW9662 | 232 | 219 | 193 | 304 | 268 | 86.4 | 165 | 298 | 123
etoposide + ruxolitinib | 237 | 166 | 112 | 39.0 | 61.8 | 72.6 | 95.8 | 104 | 53.2
BI-78D3 + fludarabine | - | 88.2 | 119 | 2580 | 244 | 356 | 158 | 68.6 | 49.9
fludarabine + etoposide | 78.9 | 56.3 | 118 | 2570 | 125 | 138 | 83.3 | 245 | 58.6
ruxolitinib + BI-78D3 | 86.2 | 84.0 | 152 | 93.1 | 95.7 | 68.1 | 52.1 | 102 | 89.5
BI-78D3 + GW9662 | 185 | 166 | 152 | 212 | 98.8 | 78.3 | 483 | 157 | 24.6
PF-562271 + GW441756 | 81.5 | 95.3 | 164 | 234 | 159 | 106 | 87.1 | 98.0 | 180
PF-562271 + ruxolitinib | 307 | 76.5 | 219 | 111 | 108 | 762 | 177 | 110 | 197
GW441756 + BI-78D3 | 185 | 170 | 77.3 | 171 | 66.7 | 69.6 | 119 | 206 | 73.0
tanespimycin + PF-562271 | 235 | 111 | 215 | 172 | 59.1 | 505 | 174 | 123 | 127
fludarabine + tanespimycin | 130 | 104 | 151 | 1910 | 162 | 1670 | 244 | 147 | 102
GW9662 + tanespimycin | 251 | 98.5 | 482 | 127 | 111 | 615 | 464 | 349 | 67.4